These are yes or no findings as the source states them, for the method shown. Some binding calls cover weakened binding; strength is not graded here.
What was measured:
[1] = molecular target: HA-HtrA1-V5/6xHis (human HtrA1 with an N-terminal HA epitope and C-terminal V5/6xHis epitopes) (human) (UniProt Q92743); assay: Ni-NTA capture, then SDS-PAGE with immunoblot; serum-free HEK-HtrA1 conditioned medium, captured via the hexa-His tag on Ni-NTA columns
[2] = molecular target: HA-HtrA1-V5/6xHis (human HtrA1 with an N-terminal HA epitope and C-terminal V5/6xHis epitopes) (human) (UniProt Q92743); assay: Ni-NTA capture, then SDS-PAGE with immunoblot; serum rich (10%) HEK-HtrA1 conditioned medium, captured via the hexa-His tag on Ni-NTA columns
[3] = molecular target: HA-HtrA1-V5/6xHis (human HtrA1 with an N-terminal HA epitope and C-terminal V5/6xHis epitopes) (human) (UniProt Q92743); assay: non-reducing SDS-PAGE with immunoblot; conditioned medium of HeLa cells (10% or 0.2% FBS, 24-72 h) or of HEK-HtrA1 cells, no beta-mercaptoethanol; complexes greatly reduced with beta-mercaptoethanol; more complexes after 1 h at 37 C with the hit compounds or MPPs
[4] = molecular target: High temperature requirement protein A1 (HtrA1), endogenous, from HeLa cells (human (endogenous in HeLa)) (UniProt Q92743); assay: native gel or EMSA; native PAGE of serum rich and low serum HeLa conditioned medium, probed with monoclonal anti-HtrA1

Amino acid sequences for entries named in this document (tags omitted). Residues count along the entry.
UniProt Q92743, residues 23-480: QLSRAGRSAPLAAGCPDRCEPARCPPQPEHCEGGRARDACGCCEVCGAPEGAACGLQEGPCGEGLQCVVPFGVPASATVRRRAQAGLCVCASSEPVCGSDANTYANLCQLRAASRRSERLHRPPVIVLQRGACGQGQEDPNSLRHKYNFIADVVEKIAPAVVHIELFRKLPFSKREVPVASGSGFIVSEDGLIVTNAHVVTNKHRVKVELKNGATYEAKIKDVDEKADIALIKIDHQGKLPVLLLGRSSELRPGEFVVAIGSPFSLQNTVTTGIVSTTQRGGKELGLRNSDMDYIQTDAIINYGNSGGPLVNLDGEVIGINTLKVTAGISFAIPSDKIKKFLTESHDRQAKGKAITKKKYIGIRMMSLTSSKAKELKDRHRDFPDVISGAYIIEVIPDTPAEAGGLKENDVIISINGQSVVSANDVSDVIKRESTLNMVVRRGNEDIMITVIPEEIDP

Row | binding [2] | binding [3] | binding [4] | Substance | binding [1]
1 | binds | binds | – | HA-HtrA1-V5/6xHis (human HtrA1 with an N-terminal HA epitope and C-terminal V5/6xHis epitopes) (from UniProt Q92743 23-480) (enzyme) | no binding (condition: serum-free culture)
2 | – | – | binds | High temperature requirement protein A1 (HtrA1), endogenous, from HeLa cells (from UniProt Q92743 23-480) (enzyme) | –
